These results are taken from US20090029929.

In data set [1] the test system is Ets family EBS-1 binding factors (NIH3T3 nuclear extract) (Mus musculus). The data set is described as follows: EMSA. The following applies: protein in an extract; label: 32P. (In general: A gel shift assay detects complexes by their altered migration in electrophoresis.)
Data set [2] concerns the target T1, GABPα (RA synovial cell nuclear extract) (Homo sapiens) (UniProt Q06546).
T1 sequence (looked up, limits assumed): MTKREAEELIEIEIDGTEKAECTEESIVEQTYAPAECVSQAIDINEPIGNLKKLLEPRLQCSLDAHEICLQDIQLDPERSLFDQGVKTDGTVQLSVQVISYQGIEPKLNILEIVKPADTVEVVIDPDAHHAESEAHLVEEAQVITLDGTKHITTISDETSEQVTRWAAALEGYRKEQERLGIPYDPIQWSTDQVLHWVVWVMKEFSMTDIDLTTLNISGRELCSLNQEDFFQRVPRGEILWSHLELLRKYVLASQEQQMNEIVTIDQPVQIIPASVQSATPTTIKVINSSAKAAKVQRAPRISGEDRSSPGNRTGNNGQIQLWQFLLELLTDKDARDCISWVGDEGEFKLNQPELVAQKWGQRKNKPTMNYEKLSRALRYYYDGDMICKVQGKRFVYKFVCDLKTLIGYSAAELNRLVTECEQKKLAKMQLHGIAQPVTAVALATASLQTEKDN
In words: EMSA. The following applies: supershift in synovial cell nuclear extract; probe presumed EBS-1 WT; protein in an extract; protein details: endogenous, identified by antibody supershift; label: 32P.

For data set [3], the system named is Ets family EBS-1 binding factors (NIH3T3 nuclear extract) (Mus musculus). In words: competition with a labelled probe. The following applies: unlabelled mutant did not compete; protein in an extract; variant of EBS-1 WT probe.
A further data set concerns the target T2, Fli-1 (in cells) (UniProt P26323).
T2 sequence (looked up, limits assumed): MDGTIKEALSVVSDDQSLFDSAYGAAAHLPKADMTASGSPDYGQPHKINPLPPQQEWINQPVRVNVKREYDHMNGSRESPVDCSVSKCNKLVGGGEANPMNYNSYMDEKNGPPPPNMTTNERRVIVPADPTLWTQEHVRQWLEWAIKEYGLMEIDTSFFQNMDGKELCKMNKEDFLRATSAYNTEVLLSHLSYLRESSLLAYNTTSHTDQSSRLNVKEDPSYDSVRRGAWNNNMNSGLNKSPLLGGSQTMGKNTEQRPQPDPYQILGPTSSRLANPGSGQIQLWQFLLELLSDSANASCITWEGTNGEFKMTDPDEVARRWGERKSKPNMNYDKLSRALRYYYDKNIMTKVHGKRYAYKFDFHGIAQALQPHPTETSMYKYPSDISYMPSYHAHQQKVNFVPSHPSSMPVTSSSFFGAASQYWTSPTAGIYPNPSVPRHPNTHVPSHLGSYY
The data set is described as follows: activity in cells. As to conditions: Fli-1 inhibited transcription in NIH3T3; promoter length not stated for this figure; protein in cells.

In the next data set the target is T3, GABPα (in cells) (UniProt Q00422).
T3 sequence (looked up, limits assumed): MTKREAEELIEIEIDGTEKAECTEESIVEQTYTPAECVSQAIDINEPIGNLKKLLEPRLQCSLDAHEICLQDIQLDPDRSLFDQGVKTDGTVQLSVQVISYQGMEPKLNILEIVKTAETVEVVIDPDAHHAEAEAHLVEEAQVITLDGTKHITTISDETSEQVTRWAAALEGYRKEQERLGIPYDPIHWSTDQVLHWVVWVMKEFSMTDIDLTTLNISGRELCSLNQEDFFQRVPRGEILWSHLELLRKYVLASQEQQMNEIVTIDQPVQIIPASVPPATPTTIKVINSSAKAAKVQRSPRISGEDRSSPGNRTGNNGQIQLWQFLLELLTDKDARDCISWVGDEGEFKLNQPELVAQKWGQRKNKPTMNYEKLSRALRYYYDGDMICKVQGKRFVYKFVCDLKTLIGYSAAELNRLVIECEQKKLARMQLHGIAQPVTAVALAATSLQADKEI
The data set is described as follows: activity in cells. As to conditions: GABPα increased transcription in NIH3T3; promoter length not stated for this figure; protein in cells.

In another data set the test system is GABPα/GABPβ complex. In words: activity in cells. The following applies: GABPα/β transactivation of luciferase reporter in cells; protein translated in vitro; protein details: in vitro translation products.

For at least one entry, the source does not settle the construct or the ends of the probe. For part of these data: Results from cells or extracts need not show a direct contact. For part of these data: A negative result means that nothing was seen under these conditions. For part of these data: Tags and fusion partners may be left off the protein sequences shown.

For the sequence “CCCCGCGCCGCCGGAAGTGT (double strand) [EBS-1 WT probe]”, the binding result in data set [1] and in data set [2] was “binds” each time.

In the case of “CCCCGCGCCGCCGTAAGTGT (double strand) [EBS-1 MT probe (G-76T)]”, in data set [3], the binding result is on record as “no binding”.

Take “CGACCACACGTCACAGCTCTCGCTCGTTCCGGTTGCTCGCGCAGGGGGTGGGGAGTGTTGTTAACCGGAGCGGCTGCCGCAGTCGCGGTGATTGAGCGTACTCCGCCGCGCCCCGCGCCGCCGGAAGTGAGGTGTCTTACCCCCGAAGTTCCGGTTCGCAGGGGGTGGGGAGTGTTGTTAACCGGAGCGGCTGCCGCAGTCGCGGTGATTGAGCGTGCTCGCGGCGCTGGGCTCCTGGTGAGTGGGCCTGGTCCTGATTGGGGTTGGGGGGTCGGCGTCTAGGACCTTGTCCTTTGGGGTCACTGCGATCAGCCCGCCCCGCTGCGTTCGGCCGCCAGTTTTCGGCCTGTCAGATGGCTGGAGACCTTAGGCGGCGGCGCGGCCACCGTTCCAGAGGCCGGGCCCCGCCTGCGAGGTTCGCAACTCCTAGCGTTCACAGGTGCGCGACTGTGAGGCGACCTGACTGGTTCTCAGCCCCGCCGCCGCACCCTGGCGGTCGGCCGTTTCTCCGGTTCTCAGAGTGGACACTGCTGGGGGCGGGGGGGGGGGCAGGGTTCCAGACTGACGTACCCCGATGGGCGCGCGTCTGCGCTGACCACCCTGGCACAGCTGTCACTGGTTGTGTCGCCTTCTCAAGCTGTGCCCTCTGCACCTTGCCTCCTCCACCCCTGGCGGGCCCAGCGAACCTGCCTCTAAAGCCTATCATCCCAGCTCCTTCAGAGGGTCAGCGGTGGCAGCCCCCCTCCTCCTAACTTTGCCTCAGTGACTCCCTAGAGGAGGCGCCTTGGCAGACAGCGTGGAAGAGCCCTAGATTTGAAACGAGATTGATCCAAGTTCTAGGCCTTGCATCAGTGTGAGCCTCTAACCCCTTTGAGTCCTAGTTTCTCGTTTGTGAAACAGGGAGTATATGCTGTTTTGAATCTAATGGCTGTCAAGGTGAAATGAGTGTTTGCCCTTACACTCTGCCAGGGACTGTGCTAGGTTTACATAGTGTGGATATCACAAATGTCATTTTCCTTGTGCAGGTCTCTGGGCCAGGGCG (double strand) [Synoviolin promoter -200/+843]”: the “activity on this sequence” value with Fli-1 (in cells) and with GABPα (in cells) was “active” throughout. Besides, in the data set on GABPα/GABPβ complex, the activity on this sequence (fold activation) was determined as 3.
